Measured values reported in patent US9278134B2, “Dual functioning ionic liquids and salts thereof” (priority 2008, dated 2016).
At least one structure is not confirmed: it was looked up by name or label, or the drawing left a doubt.

Assay: Thermal decomposition onset (T5% onset) by TGA

## CC(=O)Nc1ccc(OC(=O)Cn2cc[n+](C)c2)cc1.CCCCC(CC)COC(=O)CC(C(=O)OCC(CC)CCCC)S(=O)(=O)[O-] (stereo not shown) [Example 35, 1-(2-(4-acetamidophenoxy)-2-oxoethyl)-3-methyl-1H-imidazol-3-ium Docusate]
  T5%onset: 21′7 °C
